# From article PMC3914767
# Amino acid sequences for entries named in this document (tags omitted). A change or cut given only in a name is not applied to a line headed by its entry.
# UniProt Q9NQU5: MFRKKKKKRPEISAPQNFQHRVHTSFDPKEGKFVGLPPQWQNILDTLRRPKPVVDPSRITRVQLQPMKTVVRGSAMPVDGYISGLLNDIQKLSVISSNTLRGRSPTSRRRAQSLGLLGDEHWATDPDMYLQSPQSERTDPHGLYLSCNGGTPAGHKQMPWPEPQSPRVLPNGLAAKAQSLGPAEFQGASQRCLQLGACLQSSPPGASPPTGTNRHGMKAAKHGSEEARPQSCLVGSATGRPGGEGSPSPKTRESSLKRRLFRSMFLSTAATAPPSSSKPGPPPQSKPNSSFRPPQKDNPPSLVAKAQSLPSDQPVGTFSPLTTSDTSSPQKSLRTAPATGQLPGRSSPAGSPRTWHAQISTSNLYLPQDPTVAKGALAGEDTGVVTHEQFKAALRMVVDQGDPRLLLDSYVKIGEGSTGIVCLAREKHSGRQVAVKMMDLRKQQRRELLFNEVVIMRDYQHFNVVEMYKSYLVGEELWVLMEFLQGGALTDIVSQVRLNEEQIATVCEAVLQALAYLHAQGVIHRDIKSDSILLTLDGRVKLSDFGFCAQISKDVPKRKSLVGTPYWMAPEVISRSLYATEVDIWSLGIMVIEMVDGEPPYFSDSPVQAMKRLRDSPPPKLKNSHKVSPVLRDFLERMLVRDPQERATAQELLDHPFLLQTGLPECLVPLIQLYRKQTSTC
# UniProt P29311: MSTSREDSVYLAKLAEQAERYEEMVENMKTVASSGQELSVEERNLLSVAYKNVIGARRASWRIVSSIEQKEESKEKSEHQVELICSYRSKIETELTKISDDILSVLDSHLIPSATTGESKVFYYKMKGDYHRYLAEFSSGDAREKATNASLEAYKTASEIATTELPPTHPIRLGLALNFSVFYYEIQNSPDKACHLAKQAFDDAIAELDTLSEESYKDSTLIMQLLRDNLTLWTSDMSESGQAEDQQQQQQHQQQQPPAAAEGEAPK
# Results are given in words; binding and its absence hold for the method and conditions named. Binding calls can cover weak binding; strength is not graded here.
# Biological target: PAK6-GFP mutated at Thr99 (human) (UniProt Q9NQU5)
# Test: far-Western, overlay or dot blot; PAK-GFP proteins isolated with GFP-Trap from lysates of transfected HEK293 cells (in 10% serum, or serum-starved 10 h and stimulated with PMA 100 nM 30 min), blotted and probed with digoxygenin-labelled 14-3-3 (mix of yeast BMH1 and BMH2) in place of a primary antibody; both purified
substance,measurement,value
digoxygenin-labelled 14-3-3 (a mix of the Saccharomyces cerevisiae BMH1 and BMH2 14-3-3 isoforms) (from UniProt P29311 1-267; P34730 1-273),binding,binds
